According to patent US8273388B2, “Extract of Polygonum multiflorum Thunb. ex Murray var. hypoleucum and compositions for improving metabolic syndrome” (Food Industry Research & Development Institute, priority 2007, dated 2012):
At least one structure is not confirmed: it was looked up by name or label, or the drawing left a doubt.

Test system: Acyl-CoA oxidase (ACO)
Experiment: Stimulation of acyl-CoA oxidase activity in hepatic cells H4IIEC3
Format: cell-based
Conditions: clofibrate, 48 and 72 hours, FIG. 3a

With CCOC(=O)C(C)(C)Oc1ccc(Cl)cc1 [clofibrate] as the compound, how does the “stimulatory effects on ACO activity” value read?
The value was “concentration-dependent stimulatory effects”.
